Laboratory results from article doi:10.1101/2020.06.22.164400.
Results are given in words; binding and its absence hold for the method and conditions named. In cells and extracts the contact can be indirect. Some results given as binding are weak or reduced against the parent protein; the word gives no strength. Tags and fused reporters may be left off the sequences shown.

Key:
[1] = molecular target: T1, HA-tagged Fwe (Flower) from a genomic rescue transgene (Drosophila) (UniProt Q95T12); assay: co-IP
T1 sequence: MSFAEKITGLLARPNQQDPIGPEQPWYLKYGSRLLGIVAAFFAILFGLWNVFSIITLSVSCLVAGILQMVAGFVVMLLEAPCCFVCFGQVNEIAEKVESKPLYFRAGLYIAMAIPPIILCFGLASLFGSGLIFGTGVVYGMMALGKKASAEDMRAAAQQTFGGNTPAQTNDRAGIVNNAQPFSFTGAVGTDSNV

[2] = molecular target: T2, mCherry-tagged Fwe (Flower) from a genomic rescue transgene (Drosophila) (UniProt Q95T12); assay: co-IP
T2 sequence: T1 sequence

- binding [1]: binds
- binding [2]: binds
B1: α subunit of the AP-2 complex (AP-2α) (protein, UniProt P91926 1-940)
chain: MAPVRGDGMRGLAVFISDIRNCKSKEAEVKRINKELANIRSKFKGDKTLDGYQKKKYVCKLLFIFLLGHDIDFGHMEAVNLLSSNKYSEKQIGYLFISVLVNTNSDLIRLIIQSIKNDLQSRNPVHVNLALQCIANIGSRDMAESFSNEIPKLLVSGDTMDVVKQSAALCLLRLFRSSPDIIPGGEWTSRIIHLLNDQHMGVVTAATSLIDALVKRNPDEYKGCVNLAVSRLSRIVTASYTDLQDYTYYFVPAPWLSVKLLRLLQNYNPVTEEAGVRARLNETLETILNKAQEPPKSKKVQHSNAKNAVLFEAINLIIHSDSEPNLLVRACNQLGQFLSNRETNLRYLALESMCHLATSEFSHEEVKKHQEVVILSMKMEKDVSVRQMAVDLLYAMCDRGNAEEIVQEMLNYLETADYSIREEMVLKVAILAEKYATDYTWYVDVILNLIRIAGDYVSEEVWYRVIQIVINREEVQGYAAKTVFEALQAPACHENMVKVGGYILGEFGNLIAGDSRSAPLVQFKLLHSKYHLCSPMTRALLLSTYIKFINLFPEIRTNIQDVFRQHSNLRSADAELQQRASEYLQLSIVASTDVLATVLEEMPSFPERESSILAVLKKKKPGRVPENEIRESKSPAPLTSAAQNNALVNNSHSKLNNSNANTDLLGLSTPPSNNIGSGSNSNSTLIDVLGDMYGSNSNNNSSAVYNTKKFLFKNNGVLFENEMLQIGVKSEFRQNLGRLGLFYGNKTQVPLTNFNPVLQWSAEDALKLNVQMKVVEPTLEAGAQIQQLLTAECIEDYADAPTIEISFRYNGTQQKFSIKLPLSVNKFFEPTEMNAESFFARWKNLSGEQQRSQKVFKAAQPLDLPGARNKLMGFGMQLLDQVDPNPDNMVCAGIIHTQSQQVGCLMRLEPNKQAQMFRLTVRASKETVTREICDLLTDQF
